Binding data for 5 molecules are collected here from article PMC7196898.

Results are given in words; binding and its absence hold for the method and conditions named. In cells and extracts the contact can be indirect. Some results given as binding are weak or reduced against the parent protein; the word gives no strength. For part of these data: Tags and fused reporters may be left off the sequences shown.

Assay [1] addresses T1, Citrine-LYM2 (LYSM-CONTAINING GPI-ANCHORED PROTEIN 2), expressed in N. benthamiana (Arabidopsis) (UniProt O23006).
T1 sequence: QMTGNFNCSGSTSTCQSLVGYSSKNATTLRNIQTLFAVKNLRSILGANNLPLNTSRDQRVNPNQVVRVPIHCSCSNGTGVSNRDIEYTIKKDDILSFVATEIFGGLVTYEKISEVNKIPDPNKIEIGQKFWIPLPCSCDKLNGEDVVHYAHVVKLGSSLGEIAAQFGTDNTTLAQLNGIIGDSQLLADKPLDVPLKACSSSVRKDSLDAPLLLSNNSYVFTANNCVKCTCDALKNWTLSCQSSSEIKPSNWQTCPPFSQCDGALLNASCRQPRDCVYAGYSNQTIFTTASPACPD
Description: FRET or BRET; homo-FRET by fluorescence anisotropy (r) of Citrine-LYM2 in chitin-treated N. benthamiana tissue, regions of interest in the plasma membrane and at plasmodesmata, against freely rotating cytosolic GFP. In general terms: BRET reads energy transfer from a luciferase to a nearby fluorophore.

The target of assay [2] is T1, Citrine-LYM2 (LYSM-CONTAINING GPI-ANCHORED PROTEIN 2), expressed in N. benthamiana (Arabidopsis). Description: co-IP; N. benthamiana leaves coexpressing bait and prey, water- or chitin-treated; Citrine- or GFP-tagged bait precipitated from detergent-extracted fractions with GFP-Trap beads, 2 h at 4 °C; IP buffer 50 mM Tris-HCl pH 7.5, 150 mM NaCl, 0.5% IGEPAL CA-630; blots with anti-GFP and anti-HA.

The target in assay [3] is T2, Citrine-LYM2, expressed in Arabidopsis protoplasts (Arabidopsis) (UniProt O23006).
T2 sequence: T1 sequence
The assay is described as follows: co-IP; Arabidopsis Col-0 and lyk5-2 protoplasts expressing Citrine-LYM2 and LYK4-RFP, with or without chitin; Citrine-LYM2 precipitated with GFP-Trap beads; blots with anti-GFP and anti-RFP.

Assay [4] addresses T3, LYK4-GFP (Arabidopsis) (UniProt O64825).
T3 sequence: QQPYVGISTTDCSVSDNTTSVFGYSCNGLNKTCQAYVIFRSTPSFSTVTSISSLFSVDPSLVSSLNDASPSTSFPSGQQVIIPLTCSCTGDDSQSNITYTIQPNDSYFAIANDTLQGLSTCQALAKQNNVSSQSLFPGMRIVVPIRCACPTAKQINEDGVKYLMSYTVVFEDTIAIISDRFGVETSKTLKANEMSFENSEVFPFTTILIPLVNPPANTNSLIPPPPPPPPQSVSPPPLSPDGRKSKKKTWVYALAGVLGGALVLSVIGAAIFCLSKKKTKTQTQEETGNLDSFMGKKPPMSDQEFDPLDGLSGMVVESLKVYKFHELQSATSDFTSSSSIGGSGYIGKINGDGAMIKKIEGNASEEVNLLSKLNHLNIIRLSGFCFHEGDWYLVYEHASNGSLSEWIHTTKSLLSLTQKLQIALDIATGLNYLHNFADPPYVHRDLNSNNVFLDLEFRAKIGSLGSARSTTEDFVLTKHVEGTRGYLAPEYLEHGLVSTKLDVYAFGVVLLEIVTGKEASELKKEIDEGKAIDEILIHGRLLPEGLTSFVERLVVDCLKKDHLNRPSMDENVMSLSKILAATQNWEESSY
Description: co-IP; N. benthamiana leaves coexpressing bait and prey, water- or chitin-treated; Citrine- or GFP-tagged bait precipitated from detergent-extracted fractions with GFP-Trap beads, 2 h at 4 °C; IP buffer 50 mM Tris-HCl pH 7.5, 150 mM NaCl, 0.5% IGEPAL CA-630; blots with anti-GFP and anti-HA.

Assay [5] has as its target T3, LYK4-GFP (Arabidopsis). Description: FRET or BRET; FRET-FLIM in N. benthamiana leaf tissue, plasma membrane; donor LYK4-GFP, acceptor LYK5-RFP; 30 min after infiltration with water (mock) or chitin (500 µg/mL); GFP fluorescence lifetime (τAv).

B1: Citrine-LYM2 (LYSM-CONTAINING GPI-ANCHORED PROTEIN 2), expressed in N. benthamiana (receptor, UniProt O23006 24-318)
chain: T1 sequence
For B1, in assay [1], the binding result is “binds”.

B2: LYK4-HA (receptor, UniProt O64825 23-612)
chain: T3 sequence
For the molecule B2, in assay [2], the binding entry is recorded as “binds”.

B3: LYK4-RFP, expressed in Arabidopsis protoplasts (receptor, UniProt O64825 23-612)
chain: T3 sequence
With B3, the binding result in assay [3] was “binds”.

B4: LYK5-HA (receptor, UniProt O22808 27-664)
chain: QQPYVNNHQLACEVRVYDNITNGFTCNGPPSCRSYLTFWSQPPYNTADSIAKLLNVSAAEIQSINNLPTATTRIPTRELVVIPANCSCSSSSGGFYQHNATYNLSGNRGDETYFSVANDTYQALSTCQAMMSQNRYGERQLTPGLNLLVPLRCACPTAKQTTAGFKYLLTYLVAMGDSISGIAEMFNSTSAAITEGNELTSDNIFFFTPVLVPLTTEPTKIVISPSPPPPPVVATPPQTPVDPPGSSSSHKWIYIGIGIGAGLLLLLSILALCFYKRRSKKKSLPSSLPEENKLFDSSTKQSIPTTTTTQWSIDLSNSSEAFGLKSAIESLTLYRFNDLQSATSNFSDENRIKGSVYRATINGDDAAVKVIKGDVSSSEINLLKKLNHSNIIRLSGFCIREGTSYLVFEYSENGSISDWLHSSGKKSLTWKQRVEIARDVAEALDYLHNYITPPHIHKNLESTNILLDSNFRAKIANFGVARILDEGDLDLQLTRHVEGTQGYLAPEYVENGVITSKLDVFAFGVAVLELLSGREAVTIHKKKEGEEEVEMLCKVINSVLGGENVREKLKEFMDPSLGNEYPLELAYTMAQLAKSCVATDLNSRPSVTQVLTTLSMIVSSSIDWEPSDDLLRSGSLGN
Regarding B4, the binding result in assay [2] and in assay [4] was “binds” in each case.

B5: LYK5-RFP (receptor, UniProt O22808 27-664)
chain: B4 chain
Turning to B5, the binding result in assay [5] is “binds”.
